Experimental findings from publication PMC2581436, “Role of Amphipathic Helix of a Herpesviral Protein in Membrane Deformation and T Cell Receptor Downregulation” (PLoS Pathogens, 2008) are described below.

These are yes or no findings as the source states them, for the method shown. In cells and extracts the contact can be indirect. Some results given as binding are weak or reduced against the parent protein; the word gives no strength.

The experiment has as its target Tyrosine kinase interacting protein (Tip) of Herpesvirus saimiri, wild type (Herpesvirus saimiri) (UniProt P22575). Briefly: co-IP; 293T cells co-transfected with Flag-tagged wild type Tip and GFP fusions of Tip or its mutants; immunoprecipitation with anti-Flag, immunoblot with anti-GFP; lysis buffer 150 mM NaCl, 0.5% Nonidet P-40, 50 mM HEPES pH 7.4.

B1: Tyrosine kinase interacting protein (Tip) of Herpesvirus saimiri, wild type (protein, UniProt P22575 1-256)
chain: MANEGEEIELTEFPETEKERKDEEKLSSCSEETTNTSSSSGSDHVPVPIEVNVIIQNSSRTEDELQNSKEIELTGFQGKLSSCSEETTAPSSSYSSKQASVFIEENGDNETSTYRPQNVLTNLNSLYTTFEDARAQGKGMVRHKSEDLQSFLEKYPPDFRKPKRDLSATWDPGMPTPPLPPRPANLGERQASTVRLHVKESNCKQPRERKANERNIVKDLKRLENKINVIICLVVVILAVLLLVTVLSILHIGMKS
In the case of B1, the binding result is given as “binds”.
